## Results from one PubChem assay

The results are deposited in PubChem (AID2202234; NCATS, 2025).

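The 48-hour survival of the MECOM-rearranged AML line HNT-34 was tracked by a luminescent ATP-based reagent.
Each compound was run as a dilution series that mostly topped out at 46 µM.
The value is the concentration giving half of the fitted maximal loss of viability; smaller values mean stronger inhibitors.
Calls come from the fitted dose curve, and inconclusive marks inhibition that is small, poorly fitted or seen only at the highest dose.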

Values are in µM.
All entries here are filed as inconclusive.
Only part of the assay is shown, chiefly results filed as inconclusive.
A potency from a partial, single-point or poor curve is only a rough figure.
Some entries filed as inconclusive have a full curve.

c1ccc(CNc2nc(N3CCOc4ccccc43)nc3c2CCCC3)cc1 read Potency 37.2 µM (inhibitor, single point). Result for CNC(=O)[C@H]1O[C@@H](n2cnc3c(NCc4cccc(I)c4)nc(Cl)nc32)[C@H](O)[C@@H]1O was Potency 20.92 µM (inhibitor, partial curve). For O=C(O)CCCc1ccc(N(CCCl)CCCl)cc1 the result was Potency 33.15 µM (inhibitor, single point). For Cc1cc(C)c(CNC(=O)c2cc(-c3ccc(N4CCN(C)CC4)nc3)cc3c2c(C)cn3C(C)C)c(=O)[nH]1 the result was Potency 29.55 µM (inhibitor, single point). CC[C@@H]([C@H](C)O)n1ncn(-c2ccc(N3CCN(c4ccc(OCC5CO[C@@](Cn6cncn6)(c6ccc(F)cc6F)C5)cc4)CC3)cc2)c1=O (stereo partly specified) gave Potency 13.2 µM (inhibitor, partial curve). Result for CCCCc1ccc2nc(NC(=O)OC)[nH]c2c1 was Potency 0.1176 µM (inhibitor, full curve). With COc1ccc2[nH]c(S(=O)Cc3ncc(C)c(OC)c3C)nc2n1 (stereo unspecified) the assay gave Potency 18.64 µM (inhibitor, partial curve). With COc1cc([C@@H]2c3cc4c(cc3[C@@H](O)C3COC(=O)C32)OCO4)cc(OC)c1O (stereo partly specified) the assay gave Potency 0.2955 µM (inhibitor, full curve).

CS(=O)(=O)c1ccc(-c2cnc(N)c(C(=O)Nc3ccccc3)n2)cc1 gave Potency 4.683 µM (inhibitor, full curve). CC(=O)Oc1ccccc1C(=O)Nc1ncc([N+](=O)[O-])s1 read Potency 18.64 µM (inhibitor, partial curve). Result for CCOC(=O)C1=C(N)Oc2ccc(Br)cc2C1C(C#N)C(=O)OCC (stereo unspecified) was Potency 20.92 µM (inhibitor, partial curve, poor fit). Result for Nc1nccc(-c2ccc3noc(-c4ccc(Cl)cc4)c3c2)n1 was Potency 23.47 µM (inhibitor, partial curve). CNc1nc(Nc2ccc(C(=O)N3CCOCC3)cc2OC)ncc1Cl read Potency 20.92 µM (inhibitor, partial curve, poor fit). For FC(F)(F)c1ccc(CNc2ccc(Cc3c[nH]c4ncccc34)cn2)cc1 the result was Potency 16.62 µM (inhibitor, partial curve). O=C1NC(=O)C(c2c[nH]c3ccccc23)=C1c1c[nH]c2ccccc12 gave Potency 7.422 µM (inhibitor, partial curve). For Cc1c[nH]c(/C=C2\C(=O)Nc3ccccc32)c1CCC(=O)O the result was Potency 18.64 µM (inhibitor, partial curve).

With Cc1nn(C)c(COc2ccc(N3CCN(S(=O)(=O)N(C)C)CC3)cc2)c1-c1cccc2c(CCCOc3cccc4ccccc34)c(C(=O)O)n(CCN3CCOCC3)c12 the assay gave Potency 9.344 µM (inhibitor, single point).